Measurements from paper PMC10163288.
The list shows a part of the results.

B1: il10ra_site1_sap_21_mot_HHH_b2_05343_000000235_0001_19_35_H_._HHH_b2_06540_0001_0000100006_0000001_0_0001_af2pred_0001 (protein)
chain: SSSSDEEEERLRRLLEAIKRLIELGDDERAKLTLKIVKLVAELLNDEEIRELVEELERELRSSSS
B2: il10ra_site1_sap_12_mot_HHH_b1_02881_000000046_0001_1_20_H_._HHH_b1_03212_0001_0000100004_0000001_0_0001 (protein)
chain: SSSSDLEEKFIKLAQEAIRYAFRKRDEEALRALWRLVHEFLKKGDPEILEELEELLEELEGSSSS
B3: il10ra_site1_normal_mot_HHH_b1_08477_000000091_0001_40_57_H_._HHH_b1_07800_0001_0000100001_0000001_0_af2pred_0001 (protein)
chain: SSSSDEQEELVELAIKFARRLAEAGDPEAARRIIEAALEQARRNNNEELQEKLEELLEELESSSS
B4: il10ra_site1_sap_19_mot_HHH_b2_02463_af2_000000222_0001_1_19_H_._HHH_b1_03195_0001_0000200026_0000001_0_0001 (protein)
chain: SSSSTDASHEIYRLSREAAELLRNGDPEEAEKLIEEAEELAKEENNRVVLYALRVLLRAIRSSSS
B5: il10ra_site1_normal_mot_8756ee2cf497b5429c717dfc0c0bcfd6_0001_000000186_0001_1_13_H_._HHH_b1_04860_af2_0001_0000200010_0000001_0 (protein)
chain: SSSSNEIEEVYRLSREAAELLHEGNPEEAREVLERARELAEELNNDVTLYAIEYAERQLESSSSS
B6: il10ra_site1_sap_26_mot_HHH_b2_07579_000000275_0001_1_19_H_._HHH_b1_08577_0001_0000100002_0000002_0_0001_af2pred_0001 (protein)
chain: SSSSSSEEEVEELLEQIEELLKRRDRQEVLKLLKRVLKLAFELNDPELLEKVRELLEKLASSSSS
B7: il10ra_site1_sap_15_mot_HHH_b2_06142_af2_000000101_0001_1_18_H_._HHH_b1_08554_0001_0000200016_0000002_0_0001 (protein)
chain: SSSSDAERYVELSIRFARWLFEAGDPEAARFILEAAKHAAERAGNPELKEELEEVLEELEKSSSS
B8: il10ra_site1_sap_22_mot_HHH_b2_04274_000000146_0001_1_19_H_._HHH_b2_06545_0001_0000100004_0000001_0_0001 (protein)
chain: SSSSSDEEIEERVEELIEELEKVSPEEQYELLREAAELAHEANDPELARLVLEASRRVTSSSSSS
B9: il10ra_site1_sap_11_mot_HHH_b2_06497_000000202_0001_1_20_H_._HHH_b2_07590_0001_0000200012_0000001_0_0001 (protein)
chain: SSSSSSEENRRAYELLEEAFEVEDPEEAEELLREAEKLAEEAGNWALLFAIRLLLKDLKSSSSSS
B10: il10ra_site1_sap_17_mot_65b8060e20531850bca9f2e11f97d954_0001_af2_000000137_0001_17_31_H_._HHH_b2_07453_af2_0001_0000300007_0000001_0_0001 (protein)
chain: SSSSSSDEELLKLSMEAFRLALRGNPEKAEEVLEKAEELAERLGDEELLKMIQRLLEALRSSSSS

Target: il10ra, Q13651
Experiment: yeast display titration

Apparent Kd, inactive:
B1 no binding seen
B2 no binding seen
B3 no binding seen
B4 no binding seen
B5 no binding seen
B6 no binding seen
B7 no binding seen
B8 no binding seen
B9 no binding seen
B10 no binding seen

An excerpt from further up, for reference:
Apparent Kd, inactive:
B5 no binding seen
B6 no binding seen
